These are yes or no findings as the source states them, for the method shown. For some assays here: Where a sequence is shown, tags or fusion partners need not be part of it.
B1: JIP3 1-108_V60Q (RH1-domain mutant) (domain or fragment, UniProt Q9ESN9-5 1-108)
chain: MMEIQMDEGGGVVVYQDDYCSGSVMSERVSGLAGSIYREFERLIHCYDEEVVKELMPLVQNVLENLDSVLSENQEHEVELELLREDNEQLLTQYEREKALRKQAEEKF
B2: WD40-SNAP (LIS1 residues 90-410) (domain or fragment, UniProt P43034 90-410)
chain: DPKEWIPRPPEKYALSGHRSPVTRVIFHPVFSVMVSASEDATIKVWDYETGDFERTLKGHTDSVQDISFDHSGKLLASCSADMTIKLWDFQGFECIRTMHGHDHNVSSVAIMPNGDHIVSASRDKTIKMWEVQTGYCVKTFTGHREWVRMVRPNQDGTLIASCSNDQTVRVWVVATKECKAELREHEHVVECISWAPESSYSSISEATGSETKKSGKPGPFLLSGSRDKTIKMWDVSTGMCLMTLVGHDNWVRGVLFHSGGKFILSCADDKTLRVWDYKNKRCMKTLNAHEHFVTSLDFHKTAPYVVTGSVDQTVKVWECR

Tests used:
[1] = biological target: T1, GST-JIP3^563-585 (JIP3^helix construct) (human) (UniProt Q9UPT6); assay: pull-down; GST pull-down on glutathione resin with GST-JIP3^helix constructs as bait and RH1 domain constructs as prey; purified recombinant proteins, 50 - 300 pmol each in 20 μL GST-PD buffer (50 mM HEPES pH 7.5, 100 mM KCl, 1 mM MgCl2, 1 mM DTT), room temperature; Coomassie-stained SDS-PAGE; both purified
T1 sequence: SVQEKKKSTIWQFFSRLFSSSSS

[2] = biological target: WD40-SNAP (LIS1 residues 90-410) (human) (UniProt P43034); assay: SEC-MALS; 70 μL at 1 mg/mL, GF150 buffer, Superdex 200 5/150; both purified

Row | Binder | binding [1] | binding [2]
1 | B1 | no binding (tested: 50 - 300 pmol each in 20 μL) | –
2 | B2 | – | no binding (tested: 1 mg/mL)

From publication PMC7615804
